Experimental data taken from article PMC3031606.

B1: LHP1-Interacting Factor2 (LIF2), partial cDNA clone aa 204-495 isolated in the two-hybrid screen (domain or fragment, UniProt Q9ASP6 204-495)
chain: PKNWTEDEFRKVIEDVGPGVENIELIKDPTNTTRNRGFAFVLYYNNACADYSRQKMIDSNFKLEGNAPTVTWADPKSSPEHSAAAAQVKALYVKNIPENTSTEQLKELFQRHGEVTKIVTPPGKGGKRDFGFVHYAERSSALKAVKDTERYEVNGQPLEVVLAKPQAERKHDPSSYSYGAAPTPAPFVHPTFGGFAAAPYGAMGAGLGIAGSFSQPMIYGRGAMPTGMQMVPMLLPDGRVGYVLQQPGMPMAAAPPQRPRRNDRNNGSSGGSGRDNSHEHDGNRGGRRYRPY
B2: LHP1 protein fused to a His6 tag (protein, UniProt Q946J8 1-445)
chain: MKGASGAVKKKPQVLNEAGEAETAVETVGESRKISGDGGFGSDDGGGGGGGGSGESILREIGDDRPTEDGDEEEEEDEDEDDGGDEEDEEGEGEGGQEERPKLDEGFYEIEAIRRKRVRKGKVQYLIKWRGWPETANTWEPLENLQSIADVIDAFEGSLKPGKPGRKRKRKYAGPHSQMKKKQRLTSTSHDATEKSDSSTSLNNSSLPDIPDPLDLSGSSLLNRDVEAKNAYVSNQVEANSGSVGMARQVRLIDNEKEYDPTLNELRGPVNNSNGAGCSQGGGIGSEGDNVRPNGLLKVYPKELDKNSRFIGAKRRKSGSVKRFKQDGSTSNNHTAPTDQNLTPDLTTLDSFGRIARMGNEYPGVMENCNLSQKTKIEELDITKILKPMSFTASVSDNVQEVLVTFLALRSDGKEALVDNRFLKAHNPHLLIEFYEQHLKYNRTP

Columns and labels:
[1] = biological target: LHP1 chromo shadow domain (CSD) fused to the GAL4 DNA binding domain (Arabidopsis thaliana); test: two-hybrid; GAL4 system in yeast PJ69-4A; LHP1 or truncated LHP1 fused to the GAL4 DNA binding domain as bait, λACT Arabidopsis cDNA library clone / pAD-LIF2 as prey; selection on medium lacking histidine, leucine and tryptophan with 2 mM 3-amino-1,2,4-triazole, β-galactosidase assay; confirmed by independent cotransformations
[2] = biological target: glutathione S transferase (GST) alone; test: pull-down; E. coli extracts with GST- and His6-tagged proteins mixed in a 1:2 ratio with glutathione Sepharose 4B beads, room temperature 1 h, BB binding buffer, 5 washes; His6-tagged protein detected by anti-His6-peroxidase blot; in duplicate

Row | Binder | binding [1] | binding [2]
1 | B1 | binds | 
2 | B2 |  | no binding

Results are given in words; binding and its absence hold for the method and conditions named. For some assays here: A result given as binding can be weak or reduced; the word gives no strength. For some assays here: Binding seen in cells or lysates may run through a third protein. For some assays here: Sequences can lack the tags named with a protein.
